Measured data: PubChem BioAssay AID1259323 (Peter MacCallum Cancer Centre, 2017)

- Aim: 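Kinase siRNA screen linking the PAR2 receptor to the TRPV4 channel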 (primary screen)
- System: human HEK293 cells stably carrying inducible TRPV4
- Reagents: siRNA pool against human genes
- Treatment: PAR2 activation; agonist identity and dose not given
- Read-out: 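Real-time Fura-2 calcium after PAR2 activation; early peak and later plateau each as % of mock-transfected wells on the plate, mean of two plates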
- Direction: TRPV4 plateau calcium, % of mock: higher = stronger sustained TRPV4 calcium entry than mock; PAR2 peak calcium, % of mock: higher = stronger early PAR2 calcium response than mock
- Call rule: 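Active when sustained TRPV4 plateau calcium falls below 90% of mock while the early PAR2 peak remains above 79% of mock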
This is one part, drawn at random, of 715 deposited reagents. 91 of them (13%) count as active. 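Active pools lower the sustained TRPV4 phase but spare the early PAR2 peak; PAR2 agonist and dose are not stated; pools repeat across wells.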 No sequences are given here. Not stated in the record: the amount of reagent, the time to read-out.

gene symbol	PubChem SID	TRPV4 plateau calcium, % of mock	PAR2 peak calcium, % of mock	call
PRKACB (GeneID 5567)	SID336297359	100	93.2	inactive
TSSK6 (GeneID 83983)	SID336297086	104	94.8	inactive
TSSK6 (GeneID 83983)	SID336297761	85.2	86.1	active
SIK2 (GeneID 23235)	SID336297749	70.9	79.5	active
GRK5 (GeneID 2869)	SID336297090	94.5	97.6	inactive
DCLK2 (GeneID 166614)	SID336297640	93.1	97.6	inactive
ALPK1 (GeneID 80216)	SID336297456	99.8	98.1	inactive
TRPM6 (GeneID 140803)	SID336297147	96.5	96.8	inactive
ITPKA (GeneID 3706)	SID336297216	102	99.9	inactive
EPHA8 (GeneID 2046)	SID336297051	95.5	97.5	inactive
PFKFB3 (GeneID 5209)	SID336297292	111	106	inactive
AURKB (GeneID 9212)	SID336297369	110	112	inactive
DAPK1 (GeneID 1612)	SID336297251	93.8	92.3	inactive
PDK2 (GeneID 5164)	SID336297160	93.4	87.8	inactive
PAPSS2 (GeneID 9060)	SID336297149	91.9	87.6	inactive
PIP5KL1 (GeneID 138429)	SID336297120	103	99.9	inactive
NME4 (GeneID 4833)	SID336297652	102	103	inactive
RIPK2 (GeneID 8767)	SID336297190	81.5	83.8	active
ETNK2 (GeneID 55224)	SID336297245	91.6	87.8	inactive
CAMK2D (GeneID 817)	SID336297106	98.6	98.7	inactive
BMPR1A (GeneID 657)	SID336297690	93.8	101	inactive
PKDCC (GeneID 91461)	SID336297341	111	105	inactive
ROR1 (GeneID 4919)	SID336297421	106	103	inactive
RNASEL (GeneID 6041)	SID336297116	113	105	inactive
LMBR1 (GeneID 64327)	SID336297093	107	96.1	inactive
MAPK15 (GeneID 225689)	SID336297201	98.4	100	inactive
NEK8 (GeneID 284086)	SID336297351	86.1	74	inactive
MAP3K13 (GeneID 9175)	SID336297579	105	102	inactive
PIM1 (GeneID 5292)	SID336297267	100	94.7	inactive
NLK (GeneID 51701)	SID336297291	112	108	inactive
PAK4 (GeneID 10298)	SID336297327	96.3	92.8	inactive
SCYL3 (GeneID 57147)	SID336297577	90.1	90.4	inactive
CDK15 (GeneID 65061)	SID336297194	89.3	88.9	active
FN3K (GeneID 64122)	SID336297083	95.3	92	inactive

In a second layout: entries from further up
{"gene symbol": "PDK2 (GeneID 5164)", "PubChem SID": "SID336297160", "TRPV4 plateau calcium, % of mock": 93.4, "PAR2 peak calcium, % of mock": 87.8, "call": "inactive"}
{"gene symbol": "PAPSS2 (GeneID 9060)", "PubChem SID": "SID336297149", "TRPV4 plateau calcium, % of mock": 91.9, "PAR2 peak calcium, % of mock": 87.6, "call": "inactive"}
